# Laboratory results: the supplement of paper PMC9135407
# Several values for one entry are separate records, joined by “and”; a condition that tells them apart may be missing. Equal entries are not always repeated. Structures can show the parent of a compound that is named as a salt. ± gives the standard deviation of the averaged measurements. The list shows a part of the results. Part of the spread comes from offsets between plates or batches.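 Culture-activated primary human stellate myofibroblasts, where regained lipid droplets signal inactivation. Value: share of Hoechst-counted cells above a per-plate Bodipy cutoff, in duplicate wells, with DMSO negative and nortriptyline positive controls on each plate. Hits: a control-normalized score above the plate's top-tenth-percentile nortriptyline wells, or one of a plate's three best wells. Final well concentrations are not given.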
# Test system: primary human hepatic stellate cells (donor 1)
# Experiment: percent Bodipy-positive cells; higher = more lipid droplet accumulation
# Details: 48 h
# [1] = library stock concentration: 10 mM
# [2] = library stock concentration: 3.33 mM
# [3] = library stock concentration: 1 mM
smiles,measurement,setting,value
O=C(O)CCCc1ccc(N(CCCl)CCCl)cc1,percent Bodipy-positive cells,[1],38.4 ± 7%
O=C(O)CCCc1ccc(N(CCCl)CCCl)cc1 [Chloroambucil],percent Bodipy-positive cells,[2],8.52 ± 3.2%
same,percent Bodipy-positive cells,[1],29 ± 5.2%
O=C(O)CCCc1ccc(N(CCCl)CCCl)cc1 [Chlorambucil],percent Bodipy-positive cells,,8.86 ± 0.41%
same,percent Bodipy-positive cells,library stock concentration: 6.6 mM,13.4% and 2.09%
same,percent Bodipy-positive cells,[1],10.1 ± 3.5%
NCC(O)c1cc(O)c(O)cc1F (stereo not given) [6-Fluoronorepinephrine hydrochloride],percent Bodipy-positive cells,[1],46.6 ± 15%
CC[C@@H](C(N)=O)N1CCCC1=O [Levetiracetam],percent Bodipy-positive cells,[2],18.8 ± 1.1%
same,percent Bodipy-positive cells,[1],9.84% and 26.9%
same,percent Bodipy-positive cells,library stock concentration: 11.8 mM,9.79 ± 1.8%
CCCCC/C=C\C/C=C\C/C=C\C/C=C\CCCC(=O)Nc1ccc2c(C)cc(=O)oc2c1 [AMC Arachidonoyl Amide],percent Bodipy-positive cells,[3],12.76 ± 0.02%
C[C@@H]1O[C@@H](O[C@H]2C[C@@H](O)[C@]3(CO)[C@@H]4C(CC[C@]3(O)C2)[C@@]2(O)CC[C@H](C3COC(=O)C3)[C@@]2(C)C[C@H]4O)[C@H](O)[C@H](O)[C@H]1O (stereo not given in full) [Dihydroouabain],percent Bodipy-positive cells,[1],96.5 ± 1.3%
O=C(O[C@H]1C[C@H]2CC[C@@H](C1)[N+]21CCCC1)C(O)(c1ccccc1)c1ccccc1 [Trospium chloride],percent Bodipy-positive cells,[2],7.87 ± 2.2%
same,percent Bodipy-positive cells,[1],15.3 ± 6.6%
Cc1ncc(CN2CC=C(c3ccccc3)CC2)c(N)n1,percent Bodipy-positive cells,[1],7.78 ± 0.28%
Cc1[nH]c2ccc(O)cc2c1CCN [2-Methyl-5-hydroxytryptamine maleate],percent Bodipy-positive cells,[1],52 ± 8.7%
Cc1[nH]c2ccc(O)cc2c1CCN [2-Methyl-5-hydroxytryptamine hydrochloride],percent Bodipy-positive cells,[1],6.35 ± 0.085%
CCCCCCCCCCCCCC(=O)O[C@@H]1[C@@H](C)[C@@]2(O)[C@@H](C=C(CO)C[C@]3(O)C(=O)C(C)=C[C@@H]23)[C@@H]2C(C)(C)[C@]12OC(C)=O [Phorbol 12-myristate 13-acetate],percent Bodipy-positive cells,[1],20 ± 2.8%
O=C1/C(=C/c2ccccc2)C[C@@]2(O)[C@H]3Cc4ccc(O)c5c4[C@@]2(CCN3CC2CC2)[C@H]1O5 [BNTX maleate salt hydrate],percent Bodipy-positive cells,[1],100%
COc1ccc(C(=O)N2CCCC2=O)cc1 [Aniracetam],percent Bodipy-positive cells,[2],24 ± 3.6%
same,percent Bodipy-positive cells,library stock concentration: 9.1 mM,14.4% and 1.96%
CN(C)C(=O)C(CCN1CCC(O)(c2ccc(Cl)cc2)CC1)(c1ccccc1)c1ccccc1.Cl [Loperamide hydrochloride],percent Bodipy-positive cells,[1],98.03 ± 0.6%
CN1CCC(c2ccc(F)cc2)C(COc2ccc3c(c2)OCO3)C1 (stereo not given),percent Bodipy-positive cells,library stock concentration: 9.7 mM,76.5 ± 3%
O[C@H]1[C@H]2[C@H](O)CCCN2C[C@H]1O [swainsonine],percent Bodipy-positive cells,library stock concentration: 28.9 mM,12.7 ± 0.49%
CCCCCCCCCCCCCCCCOC[C@H](COP(=O)([O-])OCC[N+](C)(C)C)OC(C)=O,percent Bodipy-positive cells,[3],12.8% and 11%
CCCC(C)C1(CC)C(=O)NC(=S)NC1=O (stereo not given) [Thiopental sodium],percent Bodipy-positive cells,library stock concentration: 7.6 mM,6.9 ± 2.2%
COc1cc([C@@H]2c3cc4c(cc3[C@H](O)[C@H]3COC(=O)[C@@H]23)OCO4)cc(OC)c1OC [Picropodophyllotoxin],percent Bodipy-positive cells,[1],67.9 ± 2.3%
CC(N)Cc1c[nH]c2ccc(OCc3cccs3)cc12 (stereo not given),percent Bodipy-positive cells,[3],36.8 ± 6.9%
C1=C2CCCN[C@H]2[C@@H]2C[C@H]1[C@H]1CCCCN1C2 [Aloperine],percent Bodipy-positive cells,[2],15.9 ± 5%
same,percent Bodipy-positive cells,[1],33.4 ± 4.4%
CN1CCC(c2c[nH]c3ccc(O)cc23)CC1,percent Bodipy-positive cells,[2],9.29 ± 1.7%
CC(C)[C@@]1(NC(=O)[C@@H]2C[C@@H]3c4cccc5[nH]cc(c45)C[C@H]3N(C)C2)O[C@@]2(O)[C@@H]3CCCN3C(=O)[C@H](Cc3ccccc3)N2C1=O [Dihydroergocristine mesylate],percent Bodipy-positive cells,,49.1 ± 1.9%
same,percent Bodipy-positive cells,[1],46 ± 9.7%
COc1ccc2[nH]c3c(c2c1)CCN=C3C [Methoxy-6-harmalan],percent Bodipy-positive cells,,36.4 ± 4.4%
O=C1C=C2C=C[C@@H]3C[C@@]2(O1)[C@H]1CCCCN31 [Securinine],percent Bodipy-positive cells,,15.7 ± 0.89%
same,percent Bodipy-positive cells,[1],36.9 ± 7.9%
CC(=O)C1=C(O)[C@@H]2[C@H]3c4c[nH]c5cccc(c45)C[C@H]3C(C)(C)N2C1=O [Cyclopiazonic Acid],percent Bodipy-positive cells,[1],9.24 ± 0.9%
CC(=O)C1=C(O)[C@@H]2[C@H]3c4c[nH]c5cccc(c45)C[C@H]3C(C)(C)N2C1=O [Cyclopiazonic acid],percent Bodipy-positive cells,library stock concentration: 14.9 mM,18.9 ± 1.9%
CC(C)=CC1C(C(=O)OCc2cccc(Oc3ccccc3)c2)C1(C)C (stereo not given) [Phenothrin],percent Bodipy-positive cells,[1],40.7 ± 8.2%
NNCc1ccccc1 [Benzylhydrazine hydrochloride],percent Bodipy-positive cells,[1],16.8 ± 3.3%
NC(=O)c1ccc(OCC(O)CN2CC=C(c3ccc(F)cc3)CC2)cc1 (stereo not given),percent Bodipy-positive cells,[1],35.3 ± 0.64%
CCOC(=O)CN1C(=O)CC(C[C@@H](O)C2C[C@@H](C)C[C@H](C)C2=O)CC1=O (stereo not given in full) [Cycloheximide-N-ethylethanoate],percent Bodipy-positive cells,library stock concentration: 13.6 mM,12.5 ± 3.6%
C[N+](C)(C)CC#CCN1CCCC1=O [Oxotremorine methiodide],percent Bodipy-positive cells,[1],31.6 ± 7.4%
C[N+](C)(C)CC#CCN1CCCC1=O [Oxotremorine M],percent Bodipy-positive cells,[1],7.66 ± 1%
Cc1ncc2n1-c1ccc(Cl)cc1C(c1ccccc1F)=NC2,percent Bodipy-positive cells,[1],11.3 ± 0.93%

# Exported as tab-separated lines: part of the list above.
smiles	measurement	setting	value
CC[C@@H](C(N)=O)N1CCCC1=O [Levetiracetam]	percent Bodipy-positive cells	[1]	9.84% and 26.9%
NC(=O)c1ccc(OCC(O)CN2CC=C(c3ccc(F)cc3)CC2)cc1 (stereo not given)	percent Bodipy-positive cells	[1]	35.3 ± 0.64%
